The list shows only some results of the screen, not a fair sample: it is rich in T/C values a quarter to a half above the control, in often repeated tests (any T/C) and in doses without a T/C. Further doses and runs are listed elsewhere. T/C is the treated group as % of the vehicle group. Some entries give survivors of the animals treated and no T/C: the source holds a T/C of zero for them, seemingly a mark for toxic or unscored doses. Some doses without a T/C left all or most animals alive at the check, yet need not have been tolerated: the source hardly ever lists a survival T/C far under the control, and the zero likely stands for such cases as well. Survivors were counted at the toxicity check, usually on the fifth day, unless a day is given; later deaths do not show. Schedules are NCI's codes, taken here to give the interval after Q, in days (D) or hours (H), and the number of doses after X. Some entries were tested several times; the values are given in rising order. Where survival is the endpoint, this PubChem deposit counts one and a half times the control or more as active, and values a quarter to a half above the control carry no call in these data; other NCI protocols may use other cut-offs. Marks such as (2×) stand for listed records that agree. Some T/C values carry the count of animals alive at the toxicity check (mostly the fifth day); where none is given, no animal had died by that day.
Tested on: P388 leukemia ip, CD2F1 mice, survival T/C
Test: NCI In Vivo Anticancer Drug Screen. Data for tumor model P388 Leukemia (intraperitoneal) in CD2F1 (CDF1) mice
Settings: T/C endpoint: median survival time, higher T/C = longer survival
[1] = dose: 12.5 mg/kg/injection, schedule: Q01DX009 (ip), vehicle: saline
[2] = dose: 25.0 mg/kg/injection, schedule: Q01DX009 (ip), vehicle: saline
[3] = dose: 50.0 mg/kg/injection, schedule: Q01DX005 (ip), vehicle: Klucel (hydroxypropylcellulose) (HPC)
[4] = dose: 100.0 mg/kg/injection, schedule: Q01DX005 (ip), vehicle: Klucel (hydroxypropylcellulose) (HPC)
[5] = dose: 200.0 mg/kg/injection, schedule: Q01DX005 (ip), vehicle: Klucel (hydroxypropylcellulose) (HPC)
[6] = dose: 200.0 mg/kg/injection, schedule: Q01DX005 (ip), vehicle: saline with Tween-80
[7] = dose: 25.0 mg/kg/injection, schedule: Q01DX005 (ip), vehicle: Klucel (hydroxypropylcellulose) (HPC)
[8] = dose: 50.0 mg/kg/injection, schedule: Q01DX009 (ip), vehicle: Klucel (hydroxypropylcellulose) (HPC)
[9] = dose: 200.0 mg/kg/injection, schedule: Q01DX005 (ip), vehicle: saline
[10] = dose: 400.0 mg/kg/injection, schedule: Q01DX009 (ip), vehicle: saline
[11] = dose: 100.0 mg/kg/injection, schedule: Q01DX005 (ip), vehicle: saline with Tween-80
[12] = dose: 240.0 mg/kg/injection, schedule: Q01DX005 (ip), vehicle: Klucel (hydroxypropylcellulose) (HPC)

In the case of `O=C1c2ccccc2C(=O)N1CCC[P+](c1ccccc1)(c1ccccc1)c1ccccc1`, the T/C (dose: 3.12 mg/kg/injection, schedule: Q01DX009 (ip), vehicle: saline) is reported as 131 % of control, the T/C (dose: 6.25 mg/kg/injection, schedule: Q01DX009 (ip), vehicle: saline) is reported as 138 % of control and the T/C [1] is reported as 138 % of control. For the same molecule, the survivor count [2] was 5 of 6.
For `C(=C\c1ccc2cc(C3=NCCN3)[nH]c2c1)/c1ccc(Oc2ccc(C3=NCCN3)cc2)cc1` (tested in a mixture with another compound), the survivor count [3] was 5 of 6, the survivor count [4] was 0 of 6 and the survivor count [5] was 0 of 6.
`CN1CCC(O)(c2ccccc2)C(Br)C1` (centres undefined) was tested, and the T/C (dose: 120.0 mg/kg/injection, schedule: Q01DX005 (ip), vehicle: saline) was 125 % of control and the survivor count (dose: 240.0 mg/kg/injection, schedule: Q01DX005 (ip), vehicle: saline) was 0 of 6, 1 of 6, 3 of 6.
`C=CC(C)(O)/C=C/C=C(\C)C(CC1OC1(C)C)OC(=O)/C(C)=C\C` (centres undefined) was tested, and the survivor count (dose: 12.5 mg/kg/injection, schedule: Q01DX009 (ip), vehicle: Klucel (hydroxypropylcellulose) (HPC)) was 5 of 6 and the survivor count (dose: 25.0 mg/kg/injection, schedule: Q01DX009 (ip), vehicle: Klucel (hydroxypropylcellulose) (HPC)) was 5 of 6.
In the case of `Cc1ccc(OC/C=N\N=C(N)N)cc1C`, the survivor count (dose: 240.0 mg/kg/injection, schedule: Q01DX005 (ip), vehicle: saline with Tween-80) is reported as 3 of 6.
`CN(N=O)c1ccc(/C=C/c2ccnc3ccccc23)cc1` was tested, and the survivor count (dose: 300.0 mg/kg/injection, schedule: Q01DX009 (ip), vehicle: saline with Tween-80) was 6 of 6.
`Brc1ncc2[nH]cnc2n1` was tested, and the survivor count [6] was 4 of 6.
For `CC(C)(C)NCC(CN1CCOCC1)C(=O)c1ccccc1` (centres undefined), the survivor count [7] was 3 of 6, the survivor count [3] was 1 of 6 and the survivor count [4] was 0 of 6. For the same molecule, the survivor count [5] was 0 of 6.
`COc1ccc2nc(Cl)c(CBr)c(CBr)c2c1` was tested, and the survivor count [7] was 1 of 5, the survivor count [3] was 1 of 5 and the survivor count [4] was 2 of 5. For the same molecule, the survivor count [5] was 0 of 5.
With `O/N=C\C[n+]1cc2ccccc2cc1/C=N\O` the survivor count [6] was 0 of 6.
`COc1ccc2c(Cl)cc(NC(=S)Nc3ccccc3)nc2c1` was tested, and the survivor count [8] was 0 of 6, the survivor count (dose: 100.0 mg/kg/injection, schedule: Q01DX009 (ip), vehicle: Klucel (hydroxypropylcellulose) (HPC)) was 0 of 6 and the survivor count (dose: 200.0 mg/kg/injection, schedule: Q01DX009 (ip), vehicle: Klucel (hydroxypropylcellulose) (HPC)) was 0 of 6.
For `CCCCCCC(C)[N+](C)(C)C` (centres undefined), the survivor count (dose: 100.0 mg/kg/injection, schedule: Q04DX003 (ip), vehicle: saline) was 0 of 6, the survivor count (dose: 200.0 mg/kg/injection, schedule: Q04DX003 (ip), vehicle: saline) was 0 of 6 and the survivor count (dose: 400.0 mg/kg/injection, schedule: Q04DX003 (ip), vehicle: saline) was 0 of 6.
For `Nc1ncnc2c(C3OC(CO)C(O)C3O)[nH]nc12` (centres undefined), the T/C (dose: 8.0 mg/kg/injection, schedule: Q01DX009 (ip), vehicle: saline sonified) was 130 % of control, the T/C (dose: 12.5 mg/kg/injection, schedule: Q01DX009 (ip), vehicle: saline sonified) was 136 % of control [5 of 6 alive] and the survivor count (dose: 18.0 mg/kg/injection, schedule: Q01DX009 (ip), vehicle: saline sonified) was 5 of 6. For the same molecule, the survivor count (dose: 25.0 mg/kg/injection, schedule: Q01DX009 (ip), vehicle: saline sonified) was 5 of 6.
`ONC1CC(NO)CC(NO)C1` (centres undefined) was tested, and the survivor count (dose: 400.0 mg/kg/injection, schedule: Q01DX001 (ip), vehicle: saline) was 6 of 6.
For `O=C(O)/C=C(\F)C(=O)O`, the survivor count [9] was 5 of 6 and the survivor count (dose: 400.0 mg/kg/injection, schedule: Q01DX005 (ip), vehicle: saline) was 2 of 6 and 3 of 6.
In the case of `CC(C)=NO`, the survivor count [10] is reported as 0 of 6.
`CCC(O)c1ccco1` (centres undefined) was tested, and the survivor count [11] was 1 of 6 and the survivor count [6] was 0 of 6.
`CCCCCCCC/C=C\CCCCCCCC(=O)OCCCCCCCCCCCC` was tested, and the survivor count (dose: 25.0 mg/kg/injection, schedule: Q01DX012 (ip), vehicle: saline with Tween-80) was 5 of 5 on day 2.
For `CCCCCCC(O)CCCCCCCCCCC(N)=O` (centres undefined), the survivor count [3] was 5 of 5, the survivor count [4] was 5 of 5 and the survivor count [5] was 5 of 5.
`CCC[CH2][Sn]([CH2]CCC)([O]C(C)=O)[c]1ccccc1` was tested, and the survivor count [1] was 3 of 6 and the survivor count [2] was 3 of 6.
`[Cl][Eu][Cl]` was tested, and the survivor count (dose: 200.0 mg/kg/injection, schedule: Q01DX009 (ip), vehicle: saline) was 5 of 6 and the survivor count [10] was 0 of 6.
`O=C1/C(=C/c2ccncc2)CCCc2ccccc21` was tested, and the survivor count [12] was 0 of 6.
For `C[CH2][Sn]([CH2]C)([O]C(=O)c1ccc2c(c1)OC(C)(C)O2)[O]C(=O)c1ccc2c(c1)OC(C)(C)O2`, the T/C [3] was 136 % of control, the survivor count [4] was 0 of 6 and the survivor count [5] was 0 of 6.
`C[N+](C)(C)c1ccc(/C=C/[N+](=O)[O-])cc1` was tested, and the survivor count (dose: 50.0 mg/kg/injection, schedule: Q01DX009 (ip), vehicle: saline with Tween-80) was 3 of 6.
For `COc1cccc2c1C(=O)c1c(O)c3c(c(O)c1C2=O)C[C@@](O)(C(=O)COS(=O)(=O)c1ccc(C)cc1)C[C@@H]3OC1CC(N)C(O)C(C)O1` (some centres undefined), the T/C (dose: 0.2 mg/kg/injection, schedule: Q01DX009 (ip), vehicle: water) was 137 % of control, the T/C (dose: 0.39 mg/kg/injection, schedule: Q01DX009 (ip), vehicle: water) was 137 and 142 % of control and the T/C (dose: 0.78 mg/kg/injection, schedule: Q01DX009 (ip), vehicle: water) was 141 % of control. The T/C (dose: 1.56 mg/kg/injection, schedule: Q01DX009 (ip), vehicle: water) was 146 % of control, the T/C (dose: 3.13 mg/kg/injection, schedule: Q01DX009 (ip), vehicle: water) was 139 % of control [5 of 6 alive] and the T/C (dose: 6.25 mg/kg/injection, schedule: Q01DX009 (ip), vehicle: water) was 130 % of control. The survivor count (dose: 12.5 mg/kg/injection, schedule: Q01DX009 (ip), vehicle: water) was 6 of 6 and the survivor count (dose: 25.0 mg/kg/injection, schedule: Q01DX009 (ip), vehicle: water) was 5 of 6 and 6 of 6.
`BrCc1cccnc1` was tested, and the survivor count (dose: 100.0 mg/kg/injection, schedule: Q01DX005 (ip), vehicle: saline) was 0 of 5 and the survivor count [9] was 0 of 5.
With `NC(=O)N/N=C1/CCCCCC1(c1ccccc1)c1ccccc1` the survivor count [12] was 1 of 6.
With `O=C(O)C1CCC[N-]1.[Cl][Pt][Cl]` (centres undefined) the T/C (dose: 44.0 mg/kg/injection, schedule: Q04DX003 (ip), vehicle: saline) was 134 % of control, the T/C (dose: 66.0 mg/kg/injection, schedule: Q04DX003 (ip), vehicle: saline) was 138 % of control and the survivor count (dose: 100.0 mg/kg/injection, schedule: Q04DX003 (ip), vehicle: water) was 2 of 6.
For `C=CC[Si](CC=C)(c1ccccc1)c1ccccc1`, the T/C [1] was 90, 94 [5 of 6 alive] (2×), 98 % of control, the T/C [2] was 100, 103, 104, 126 % of control and the T/C (dose: 50.0 mg/kg/injection, schedule: Q01DX009 (ip), vehicle: saline) was 94, 96 [5 of 6 alive], 97, 98, 159 % of control. For the same molecule, the survivor count (dose: 100.0 mg/kg/injection, schedule: Q01DX009 (ip), vehicle: saline) was 6 of 6.
`CNc1ccc2c(c1)C(=O)c1c(C)n(C)c3cccc-2c13` was tested, and the survivor count [11] was 6 of 6 and the survivor count [6] was 6 of 6.
In the case of `S=C1CC(c2ccc(Sc3ccccc3)cc2)=Nc2ccccc2N1`, the survivor count [8] is reported as 6 of 6.
With `CC(NNC(=S)N1CCCC1)c1cc2ccccc2cn1` (centres undefined) the T/C (dose: 50.0 mg/kg/injection, schedule: Q01DX005 (ip), vehicle: saline with Tween-80) was 133 % of control, the T/C [11] was 135 % of control (2×) and the survivor count [6] was 0 of 6, 2 of 6, 5 of 6.
For `Cc1cc(C)c2c(c1)CC(C)(C)CC2(O)C1CCCCN1` (centres undefined), the survivor count [5] was 0 of 5.
`C[Si](C)(OC(=O)N(CCCl)CCCl)O[Si](C)(C)OC(=O)N(CCCl)CCCl` was tested, and the survivor count (dose: 100.0 mg/kg/injection, schedule: Q01DX009 (ip), vehicle: saline with Tween-80) was 6 of 6 and the survivor count (dose: 200.0 mg/kg/injection, schedule: Q01DX009 (ip), vehicle: saline with Tween-80) was 6 of 6.
